Measurements reported in PubChem BioAssay AID1224830 (NIAID, 2016)
Aim: 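Genes whose knock-down alters the TNF-alpha reporter response to LPS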 (primary screen). Cells: human THP-1 monocytic leukaemia cells, TNF dual-luciferase reporter clone, PMA-differentiated to macrophage-like cells. Reagents: siRNA pool against human genes, 50 nM. Timing: LPS for 4 h, given about 3 days after siRNA transfection. Conditions: bacterial LPS (TLR4 ligand), 10 ng/ml. Measurement: 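Ratio of firefly to renilla light, scaled to the plate median and expressed as a robust z-score per replicate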. Scale: TNF reporter robust z-score: higher = stronger TNF reporter response to LPS. Rule for the call: 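a well is active when its z-score exceeds 2.8 or falls below -1.5; control wells carry no call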.
Here is one part, drawn at random, of about 18,000 reagents. Over the whole deposit, about 2,900 (16%) are marked active. 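Calls are made per well; low scores hint the gene aids the LPS response, high scores that it dampens it.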 A number with no mark means an inactive call. Repeated entries: four replicate wells of each siRNA pool. Reagent sequences are not shown.

no.	gene	TNF reporter robust z-score
1	CEACAM19	-0.71
2	CEACAM19	-0.26
3	CEACAM19	-0.97
4	CEACAM19	-0.73
5	DDIT3	0.67
6	DDIT3	2.22
7	DDIT3	1.76
8	DDIT3	3.01 (active)
9	MIF4GD	-0.01
10	MIF4GD	0.31
11	MIF4GD	-0.24
12	MIF4GD	0.6
13	CDCA7	-0.9
14	CDCA7	-0.28
15	CDCA7	-0.75
16	CDCA7	0.22
17	MRPL34	-0.36
18	MRPL34	-0.1
19	MRPL34	-0.33
20	MRPL34	0.21
21	RNF128	1.46
22	RNF128	1.1
23	RNF128	0.37
24	RNF128	-0.95
25	ZFX	2.5
26	ZFX	6.89 (active)
27	ZFX	1.77
28	ZFX	1.26
29	UBAP2L	-0.18
30	UBAP2L	0.1
31	UBAP2L	-0.6
32	UBAP2L	0.11
33	MSLN	-0.17
34	MSLN	-0.58
35	MSLN	-0.44
36	MSLN	-0.33
37	HPDL	-0.08
38	HPDL	-0.59
39	HPDL	-0.43
40	HPDL	-0.8
41	SGTB	0.06
42	SGTB	-0.27
43	SGTB	0.18
44	SGTB	0.07
45	SYNGR4	-1.25
46	SYNGR4	-1.3
47	SYNGR4	-0.77
48	SYNGR4	-1.09

The list goes on, starting with the last 4 of the part before.
no.	gene	TNF reporter robust z-score
45	SYNGR4	-1.25
46	SYNGR4	-1.3
47	SYNGR4	-0.77
48	SYNGR4	-1.09
49	HSPE1	0.49
50	HSPE1	-1.18
51	HSPE1	-1.69 (active)
52	HSPE1	-1.06
53	IRGC	-0.73
54	IRGC	-0.52
55	IRGC	-0.1
56	IRGC	-0.59
57	MAP2K6	-0.97
58	MAP2K6	-1.16
59	MAP2K6	-0.77
60	MAP2K6	-0.06
61	BCO1	0.17
62	BCO1	1.09
63	BCO1	0.77
64	BCO1	0.82
65	AQP12A	0.4
66	AQP12A	1.3
67	AQP12A	0.04
68	AQP12A	0.42
69	LMNB1	2.72
70	LMNB1	2.91 (active)
71	LMNB1	0
72	LMNB1	-0.07
73	CFAP44	0.39
74	CFAP44	0.63
75	CFAP44	1.03
76	CFAP44	0.51
